# Data as given in PubChem BioAssay AID504764 (Drosophila RNAi Screening Center, 2011)
# Purpose: 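Knock-downs that raise or lower a Notch target reporter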 (primary screen)
# Cell system: Drosophila Kc167 cells
# Reagents: long dsRNA against Drosophila genes
# Time to read-out: about 5 days (4 days dsRNA, then 24 h after transfection)
# Conditions: transfection of constitutively active membrane-tethered Notch lacking the extracellular domain, read 24 h later
# Detection: 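Firefly luciferase from an E(spl)m3 reporter with active Notch, plus control-promoter and uninduced reporter wells for normalisation; unnormalised counts, duplicate wells a and b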
# Scale: induced reporter light, run 1, well a and induced reporter light, run 1, well b: higher = more light from the Notch target reporter with active Notch; control promoter light, run 1, well a and control promoter light, run 1, well b: higher = more light from the viral control promoter (cell number, transfection, viability); uninduced reporter light, run 1, well a: higher = more light from the Notch target reporter without active Notch
# Hit rule: 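Hit if the duplicate-averaged log2 ratio of induced to control-promoter light gives a plate-wise z beyond ±2, or induced to uninduced beyond ±1.8; weak-control or discordant-duplicate wells dropped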
# Calls: active = modifier hit (raised or lowered Notch signal); inactive = not a hit
# The deposit covers about 22,000 reagents; below is an unselected part of those that have a named target and a result. Over the whole deposit, 403 (1.9%) got an active call. 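Unnormalised raw counts per well; ratio z-scores behind the hit calls and whether each hit raises or lowers signal are not deposited.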 Entries without a mark were called inactive. Names joined by + are all predicted targets of the reagent. The record does not give: the amount of reagent.
gene,dsRNA,"induced reporter light, run 1, well a","induced reporter light, run 1, well b","control promoter light, run 1, well a","control promoter light, run 1, well b","uninduced reporter light, run 1, well a"
CG7142,DRSC16204,1.89e5,1.59e5,2.06e5,2.00e5,12135
Ilp6 (Insulin-like peptide 6),DRSC17906,1.19e5,1.06e5,2.19e5,2.31e5,8405
Cpr76Bc (Cuticular protein 76Bc),DRSC11062,1.23e5,1.04e5,91165,91545,6610
CG13667,DRSC10028,85710,80120,77870,21705,9095
Dbp21E2 (DEAD box protein 21E2),DRSC00616,1.61e5,2.17e5,1.56e5,1.54e5,17585
mus304 (mutagen-sensitive 304),DRSC11372,1.59e5,1.65e5,2.14e5,1.91e5,7250
CG8343,DRSC04905,1.68e5,1.53e5,1.41e5,1.52e5,12635
CG11714,DRSC09857,97075,99265,89120,28395,8350
CG14258,DRSC14753,1.26e5,1.25e5,2.09e5,1.58e5,13555
Or22a (Odorant receptor 22a),DRSC00764,1.17e5,1.03e5,1.06e5,63105,10900
Pglym78 (Phosphoglyceromutase 78),DRSC16787,1.91e5,2.37e5,2.63e5,2.81e5,12235
Nacalpha (Nascent polypeptide associated complex protein alpha subunit),DRSC07477,68955,66885,45640,47095,5260
Tpi (Triose phosphate isomerase),DRSC16888,1.95e5,2.67e5,3.28e5,3.56e5,18075
CG42324,DRSC08431,2.43e5 (active),2.02e5,1.78e5,1.76e5,7965
CG42324,DRSC08432,1.00e5,1.12e5,1.62e5,1.49e5,4820
CG7550,DRSC10875,2.55e5,1.98e5,2.44e5,2.17e5,8190
CG4730,DRSC15633,1.97e5,1.71e5,2.36e5,1.75e5,12835
"Alg12 (Alg12 alpha-1,6-mannosyltransferase)",DRSC16416,85250,1.10e5,89210,63065,5095
synr (sayonara),DRSC02369,2.12e5,1.55e5,2.50e5,2.45e5,10015
Alg7,DRSC02833,2.05e5,2.47e5,1.75e5,1.92e5,15520
Alg7,DRSC02834,1.26e5,1.27e5,1.05e5,1.08e5,9685
edin (elevated during infection),DRSC09488,2.02e5,1.79e5,2.77e5,1.98e5,16640
Npc2b (Niemann-Pick type C-2b),DRSC15464,2.10e5,2.31e5,1.77e5,1.56e5,15140
CG33177,DRSC19949,1.35e5,1.10e5,1.36e5,1.79e5,16300
Sgs7 (Salivary gland secretion 7),DRSC11281,1.63e5,1.91e5,2.69e5,1.65e5,9510
Spx (Spliceosomal protein on the X),DRSC18720,64660,60240,1.03e5,1.20e5,3515
Mp (Multiplexin),DRSC10193,1.19e5,1.03e5,70910,25060,9420
Mp (Multiplexin),DRSC11029,2.20e5,1.69e5,2.29e5,2.51e5,13090
Mp (Multiplexin),DRSC11030,2.66e5,2.48e5,4.02e5,3.61e5,14078
CheA7a (Chemosensory protein A 7a),DRSC17965,1.65e5,1.37e5,3.02e5,2.66e5,10430
CG34375,DRSC14684,1.68e5,1.72e5,2.33e5,2.35e5,16855
CG34375,DRSC14685,95145,1.00e5,99380,1.09e5,11300
Met75Ca + Met75Cb,DRSC09549,1.82e5,1.39e5,1.85e5,2.14e5,14965
Met75Ca + Met75Cb,DRSC11221,2.05e5,2.70e5,2.59e5,2.06e5,7940

Sorted by “induced reporter light, run 1, well b” (descending): 4 of the entries above.
gene,dsRNA,"induced reporter light, run 1, well a","induced reporter light, run 1, well b","control promoter light, run 1, well a","control promoter light, run 1, well b","uninduced reporter light, run 1, well a"
Dbp21E2 (DEAD box protein 21E2),DRSC00616,1.61e5,2.17e5,1.56e5,1.54e5,17585
mus304 (mutagen-sensitive 304),DRSC11372,1.59e5,1.65e5,2.14e5,1.91e5,7250
CG8343,DRSC04905,1.68e5,1.53e5,1.41e5,1.52e5,12635
CG13667,DRSC10028,85710,80120,77870,21705,9095
